At least one structure is not confirmed: it was looked up by name or label, or the drawing left a doubt.
System: HBV
Assay: Anti-hepatitis B assay: extracellular HBV DNA by TaqMan PCR from HepG2 2.2.15 cells
Type: cell-based, Hepatitis B virus (wild-type ayw1 strain)
Conditions: single-dose assay
Text: The pure cannabis cannabinoid CBD of FIG. 2 was subjected to a modified anti-hepatitis B assay. [Korba B E, Gerin J L, Use Of A Standardized Cell Culture Assay To Assess Activities Of Nucleoside Analogs Against Hepatitis B Virus Replication, Antiviral Res, 19:55-70 (1992); Korba B E, Milman G., A Cell Culture Assay For Compounds Which Inhibit Hepatitis B Virus Replication, Antiviral Res 1991; 15:217-28]. The modifications allowed use in real time quantitative polymerase chain reaction (PCR) (TaqMan) to measure extracellular HBV DNA copy number associated with virions released from HepG2 2.2.15 cells. The HepG2 2.2.15 cell line is a stable cell line producing high levels of the wild-type ayw1 strain of HBV. […] Six days following the initial administration of the test compounds, the cell culture supernatant was collected, treated with pronase and DNAse, and then used in a real-time quantitative TaqMan PCR assay. Antiviral activity was determined by calculating the reduction in HBV DNA levels compared to untreated virus control samples. Compound cytotoxicity was determined using MTS (CellTiter 96 Reagent, Promega) to measure cell viability as described above.

In the case of Nc1ccn([C@@H]2CS[C@H](CO)O2)c(=O)n1 [Lamivudine, reference compound], the “Activity against HBV in vitro / inhibition of viral replication (in words)” value was “significantly inhibited viral replication”.

— patent US10912740B2, “Treating hepatitis C with cannabidiol” (Vilotos Pharmaceuticals, Inc., priority 2017, dated 2021)
